Source: patent publication US20240415967A1, “DEGRADABLE NEAR-INFRARED PHOTOSENSITIZERS, PREPARATION METHODS, APPLICATIONS THEREOF” (BEIJING INSTITUTE OF COLLABORATIVE INNOVATION, priority 2021, published 2024)

What was measured:
[1] = Photodegradation process of a photosensitizer at an animal level (in vivo fluorescence imaging of tumor); design: species or system BALB/C nude mice; settings: 0.2 mg/kg in situ, 700 nm 100 mW/cm^2
[2] = Detection of depth of in vivo fluorescence imaging; design: species or system BALB/C nude mice; settings: 0.2 mg/kg subcutaneous, excitation 710 nm, collection 750 nm
Hela cells [3] = experiment: Cell fluorescence imaging with lysosomal green fluorescence probe; type: cell-based, human; settings: 10 μM
Hela cells [4] = experiment: Photodegradation process of a photosensitizer in cells (confocal fluorescence imaging); type: cell-based, human; settings: 10 μM, 700 nm 10 mW/cm^2

## C[N+](C)(C)c1c(F)c(F)c(C2=C3C(=O)OC4=[N+]3[Zn]35[n]6c2ccc6-c2c(oc6c(F)c([N+](C)(C)C)c(F)c(F)c26)[N+]3=c2oc3c(F)c([N+](C)(C)C)c(F)c(F)c3c2=c2ccc([n]25)=C4c2c(F)c(F)c([N+](C)(C)C)c(F)c2F)c(F)c1F (centres unmarked) [target product]
[1]
  fluorescence signal in the mouse tumor, irradiation for 0 min: relatively strong fluorescence signal
  fluorescence signal in the mouse tumor, irradiation for 5 min: significantly weakened
[2]
  in vivo fluorescence signal at a depth of 1 mm: strong fluorescence signal
  in vivo fluorescence signal at a depth of 4 mm: slightly attenuated
  in vivo fluorescence signal at a depth of 7 mm: further weakened
  in vivo fluorescence signal at a depth of 10 mm: still effectively detected
Hela cells [3]; 12 h incubation, excitation 700 nm, 715 nm high-pass, FIG. 19
  fluorescence signal in cells: relatively strong fluorescence signal
Hela cells [3]; FIG. 20
  subcellular localization (overlap with lysosomal probe): may be in the lysosome
Hela cells [4]
  fluorescence signal in cells, irradiation for 0 min: relatively strong fluorescence signal
  fluorescence signal in cells, irradiation for 5 min: significantly weakened
  fluorescence signal in cells, irradiation for 10 min: completely quenched
